Reference: the supplement of paper PMC10849652
This is one part of the list.

Chains of the proteins cited; added tags and fusions are not shown. Lines headed by an entry give the natural chain unless they say otherwise; changes in a name come on top.
UniProt P22692: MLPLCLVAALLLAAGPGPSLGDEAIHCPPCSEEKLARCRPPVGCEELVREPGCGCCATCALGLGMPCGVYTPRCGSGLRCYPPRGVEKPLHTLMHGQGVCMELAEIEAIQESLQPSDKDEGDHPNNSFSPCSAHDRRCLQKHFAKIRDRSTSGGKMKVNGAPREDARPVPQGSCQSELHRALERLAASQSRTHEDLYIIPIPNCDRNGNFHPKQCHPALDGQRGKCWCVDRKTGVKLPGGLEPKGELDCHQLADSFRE
UniProt Q9P2X3: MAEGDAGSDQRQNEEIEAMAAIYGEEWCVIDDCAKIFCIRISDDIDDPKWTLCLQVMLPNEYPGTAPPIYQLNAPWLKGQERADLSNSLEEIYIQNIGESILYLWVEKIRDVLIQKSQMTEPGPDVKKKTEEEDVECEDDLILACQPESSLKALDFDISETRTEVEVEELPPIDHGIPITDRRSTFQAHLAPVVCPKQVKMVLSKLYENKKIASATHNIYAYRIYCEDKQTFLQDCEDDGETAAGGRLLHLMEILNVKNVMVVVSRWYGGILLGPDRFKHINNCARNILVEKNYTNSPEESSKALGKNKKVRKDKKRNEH
UniProt Q92598: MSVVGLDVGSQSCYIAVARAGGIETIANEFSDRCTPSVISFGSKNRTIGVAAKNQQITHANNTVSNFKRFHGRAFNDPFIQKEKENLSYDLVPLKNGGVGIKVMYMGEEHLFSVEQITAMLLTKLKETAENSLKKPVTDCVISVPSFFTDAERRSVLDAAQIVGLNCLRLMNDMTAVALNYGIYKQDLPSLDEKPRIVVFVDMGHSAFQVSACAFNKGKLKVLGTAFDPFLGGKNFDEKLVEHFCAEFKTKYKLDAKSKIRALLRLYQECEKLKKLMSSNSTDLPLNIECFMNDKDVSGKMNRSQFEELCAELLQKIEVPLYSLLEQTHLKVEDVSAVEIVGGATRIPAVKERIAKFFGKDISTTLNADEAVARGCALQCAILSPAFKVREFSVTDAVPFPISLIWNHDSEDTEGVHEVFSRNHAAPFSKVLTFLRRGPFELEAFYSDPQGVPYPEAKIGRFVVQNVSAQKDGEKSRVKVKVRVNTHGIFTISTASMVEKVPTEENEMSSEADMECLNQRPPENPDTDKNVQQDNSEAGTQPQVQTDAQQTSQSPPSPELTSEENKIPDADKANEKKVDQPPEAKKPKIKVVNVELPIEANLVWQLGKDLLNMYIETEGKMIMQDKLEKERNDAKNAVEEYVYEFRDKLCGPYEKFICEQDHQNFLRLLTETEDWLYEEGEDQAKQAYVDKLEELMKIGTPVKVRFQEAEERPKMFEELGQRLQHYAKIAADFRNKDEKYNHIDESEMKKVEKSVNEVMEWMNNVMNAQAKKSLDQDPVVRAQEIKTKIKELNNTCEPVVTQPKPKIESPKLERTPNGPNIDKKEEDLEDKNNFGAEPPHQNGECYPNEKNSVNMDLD
UniProt Q9H6K1: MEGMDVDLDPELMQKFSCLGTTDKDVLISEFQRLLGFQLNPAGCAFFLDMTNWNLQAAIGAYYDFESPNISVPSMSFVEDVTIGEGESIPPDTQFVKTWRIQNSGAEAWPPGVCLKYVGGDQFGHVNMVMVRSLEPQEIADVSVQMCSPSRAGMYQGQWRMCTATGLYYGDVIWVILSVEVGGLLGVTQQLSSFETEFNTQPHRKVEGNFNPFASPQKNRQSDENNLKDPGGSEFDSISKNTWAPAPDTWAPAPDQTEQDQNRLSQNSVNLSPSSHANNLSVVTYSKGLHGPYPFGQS
UniProt P42858, whole entry, looked up: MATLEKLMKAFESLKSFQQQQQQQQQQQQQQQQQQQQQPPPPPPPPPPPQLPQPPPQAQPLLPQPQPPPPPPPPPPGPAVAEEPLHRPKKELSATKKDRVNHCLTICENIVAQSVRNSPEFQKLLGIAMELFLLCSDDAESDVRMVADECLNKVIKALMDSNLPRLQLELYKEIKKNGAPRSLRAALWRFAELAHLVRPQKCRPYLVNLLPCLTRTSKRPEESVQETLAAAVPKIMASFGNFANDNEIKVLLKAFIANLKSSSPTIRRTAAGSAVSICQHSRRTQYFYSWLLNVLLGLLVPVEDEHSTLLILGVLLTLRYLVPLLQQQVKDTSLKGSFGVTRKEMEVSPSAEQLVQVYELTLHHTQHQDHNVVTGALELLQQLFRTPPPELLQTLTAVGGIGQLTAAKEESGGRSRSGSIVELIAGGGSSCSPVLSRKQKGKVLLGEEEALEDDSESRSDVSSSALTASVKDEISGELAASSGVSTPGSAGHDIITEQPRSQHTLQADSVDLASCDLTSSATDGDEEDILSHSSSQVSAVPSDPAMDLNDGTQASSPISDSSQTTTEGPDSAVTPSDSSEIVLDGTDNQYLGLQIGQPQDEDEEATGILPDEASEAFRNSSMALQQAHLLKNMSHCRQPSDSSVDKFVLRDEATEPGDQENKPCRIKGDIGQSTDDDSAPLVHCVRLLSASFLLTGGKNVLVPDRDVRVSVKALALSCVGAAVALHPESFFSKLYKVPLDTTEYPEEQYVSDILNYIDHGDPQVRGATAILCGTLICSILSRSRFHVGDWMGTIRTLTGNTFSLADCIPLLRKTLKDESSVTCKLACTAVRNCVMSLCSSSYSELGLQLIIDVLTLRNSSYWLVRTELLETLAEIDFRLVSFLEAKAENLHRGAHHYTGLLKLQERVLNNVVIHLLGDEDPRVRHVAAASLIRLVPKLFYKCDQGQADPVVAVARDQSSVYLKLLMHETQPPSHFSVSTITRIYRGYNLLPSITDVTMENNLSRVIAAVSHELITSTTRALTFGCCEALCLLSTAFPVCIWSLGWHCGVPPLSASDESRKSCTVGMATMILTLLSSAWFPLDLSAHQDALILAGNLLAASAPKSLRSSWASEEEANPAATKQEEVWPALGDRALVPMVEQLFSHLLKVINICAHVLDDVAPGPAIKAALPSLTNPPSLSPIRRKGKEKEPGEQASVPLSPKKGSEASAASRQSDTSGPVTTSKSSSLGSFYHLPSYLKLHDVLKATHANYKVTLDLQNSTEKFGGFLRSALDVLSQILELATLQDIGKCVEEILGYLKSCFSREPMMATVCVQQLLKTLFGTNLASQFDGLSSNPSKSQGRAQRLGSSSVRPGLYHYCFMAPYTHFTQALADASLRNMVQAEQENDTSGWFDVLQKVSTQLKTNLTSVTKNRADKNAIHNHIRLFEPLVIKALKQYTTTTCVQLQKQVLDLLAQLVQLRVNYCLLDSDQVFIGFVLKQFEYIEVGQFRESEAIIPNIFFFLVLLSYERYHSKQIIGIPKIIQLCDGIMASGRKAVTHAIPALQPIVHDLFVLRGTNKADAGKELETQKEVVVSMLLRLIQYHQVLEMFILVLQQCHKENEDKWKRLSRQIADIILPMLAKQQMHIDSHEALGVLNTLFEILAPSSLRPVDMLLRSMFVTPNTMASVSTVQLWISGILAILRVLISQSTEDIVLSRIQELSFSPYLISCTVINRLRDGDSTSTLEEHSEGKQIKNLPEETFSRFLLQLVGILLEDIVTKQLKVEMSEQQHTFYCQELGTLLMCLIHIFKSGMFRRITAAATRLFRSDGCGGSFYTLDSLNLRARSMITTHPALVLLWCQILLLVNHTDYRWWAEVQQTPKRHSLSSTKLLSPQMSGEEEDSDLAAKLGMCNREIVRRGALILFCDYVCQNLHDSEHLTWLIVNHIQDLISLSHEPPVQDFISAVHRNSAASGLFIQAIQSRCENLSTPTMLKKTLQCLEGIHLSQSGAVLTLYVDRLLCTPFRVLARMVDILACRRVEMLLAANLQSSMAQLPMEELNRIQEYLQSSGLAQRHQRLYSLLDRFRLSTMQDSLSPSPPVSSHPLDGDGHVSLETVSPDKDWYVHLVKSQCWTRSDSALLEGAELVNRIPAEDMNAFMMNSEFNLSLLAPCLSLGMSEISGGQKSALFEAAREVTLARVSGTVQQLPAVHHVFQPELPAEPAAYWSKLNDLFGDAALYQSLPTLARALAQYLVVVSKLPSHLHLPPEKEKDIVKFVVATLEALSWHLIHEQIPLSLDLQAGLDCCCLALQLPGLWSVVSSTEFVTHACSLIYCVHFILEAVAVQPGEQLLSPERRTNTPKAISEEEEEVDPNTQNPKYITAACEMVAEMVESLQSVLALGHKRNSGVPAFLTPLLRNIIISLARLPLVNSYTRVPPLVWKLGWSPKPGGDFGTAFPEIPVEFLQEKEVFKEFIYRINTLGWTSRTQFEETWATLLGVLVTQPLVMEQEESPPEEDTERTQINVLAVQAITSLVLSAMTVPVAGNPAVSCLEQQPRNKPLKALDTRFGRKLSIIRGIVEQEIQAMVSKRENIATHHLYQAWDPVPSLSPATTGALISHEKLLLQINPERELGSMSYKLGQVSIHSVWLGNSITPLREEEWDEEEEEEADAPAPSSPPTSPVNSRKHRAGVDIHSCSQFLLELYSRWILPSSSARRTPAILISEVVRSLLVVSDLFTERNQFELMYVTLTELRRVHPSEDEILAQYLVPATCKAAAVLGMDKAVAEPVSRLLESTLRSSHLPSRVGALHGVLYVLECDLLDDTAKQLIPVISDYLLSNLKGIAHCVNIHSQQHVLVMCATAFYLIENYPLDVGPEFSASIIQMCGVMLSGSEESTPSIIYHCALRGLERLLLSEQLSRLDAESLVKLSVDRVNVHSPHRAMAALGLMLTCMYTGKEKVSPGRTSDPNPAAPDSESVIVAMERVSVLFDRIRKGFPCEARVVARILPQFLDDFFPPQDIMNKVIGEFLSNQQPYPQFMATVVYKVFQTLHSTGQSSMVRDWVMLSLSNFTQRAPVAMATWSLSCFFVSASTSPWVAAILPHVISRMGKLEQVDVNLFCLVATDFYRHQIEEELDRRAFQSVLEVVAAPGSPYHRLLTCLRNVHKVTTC
UniProt Q9NWB7: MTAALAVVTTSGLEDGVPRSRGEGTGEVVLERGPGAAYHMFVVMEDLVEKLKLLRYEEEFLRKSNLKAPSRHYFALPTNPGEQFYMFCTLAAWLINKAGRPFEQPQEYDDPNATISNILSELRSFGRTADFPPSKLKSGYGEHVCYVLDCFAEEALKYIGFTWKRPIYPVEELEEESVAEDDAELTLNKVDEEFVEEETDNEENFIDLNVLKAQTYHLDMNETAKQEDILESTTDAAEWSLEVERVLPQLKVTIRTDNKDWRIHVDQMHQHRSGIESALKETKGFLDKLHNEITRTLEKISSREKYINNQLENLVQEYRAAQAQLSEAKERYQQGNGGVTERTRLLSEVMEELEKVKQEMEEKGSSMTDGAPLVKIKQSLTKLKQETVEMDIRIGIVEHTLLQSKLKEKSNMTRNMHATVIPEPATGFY
UniProt P49441: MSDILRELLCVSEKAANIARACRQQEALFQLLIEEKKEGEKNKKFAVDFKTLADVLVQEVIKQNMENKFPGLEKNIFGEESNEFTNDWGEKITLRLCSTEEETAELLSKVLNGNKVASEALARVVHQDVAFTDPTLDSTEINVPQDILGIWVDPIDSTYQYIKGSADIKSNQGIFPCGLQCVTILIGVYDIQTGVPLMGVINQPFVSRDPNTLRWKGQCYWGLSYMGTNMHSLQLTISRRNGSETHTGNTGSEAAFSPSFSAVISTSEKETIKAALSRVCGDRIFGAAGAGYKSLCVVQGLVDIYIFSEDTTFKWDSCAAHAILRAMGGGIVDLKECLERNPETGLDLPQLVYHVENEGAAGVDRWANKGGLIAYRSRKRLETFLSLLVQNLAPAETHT
UniProt P10809, whole entry, looked up: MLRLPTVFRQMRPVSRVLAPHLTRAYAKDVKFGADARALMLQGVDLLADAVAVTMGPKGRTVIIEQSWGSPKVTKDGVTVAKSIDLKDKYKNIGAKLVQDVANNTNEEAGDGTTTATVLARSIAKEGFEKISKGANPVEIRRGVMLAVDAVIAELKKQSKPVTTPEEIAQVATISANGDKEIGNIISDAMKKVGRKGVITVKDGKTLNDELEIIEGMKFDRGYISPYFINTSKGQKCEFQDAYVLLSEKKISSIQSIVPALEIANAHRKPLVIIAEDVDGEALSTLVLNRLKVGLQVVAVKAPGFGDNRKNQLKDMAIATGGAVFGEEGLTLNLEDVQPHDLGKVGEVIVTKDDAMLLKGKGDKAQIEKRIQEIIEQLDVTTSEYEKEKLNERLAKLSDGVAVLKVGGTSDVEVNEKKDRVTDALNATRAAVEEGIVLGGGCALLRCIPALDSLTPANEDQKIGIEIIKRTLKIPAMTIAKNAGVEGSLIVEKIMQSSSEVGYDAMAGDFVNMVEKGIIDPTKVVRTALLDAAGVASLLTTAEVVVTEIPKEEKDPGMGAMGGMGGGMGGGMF
UniProt P13598: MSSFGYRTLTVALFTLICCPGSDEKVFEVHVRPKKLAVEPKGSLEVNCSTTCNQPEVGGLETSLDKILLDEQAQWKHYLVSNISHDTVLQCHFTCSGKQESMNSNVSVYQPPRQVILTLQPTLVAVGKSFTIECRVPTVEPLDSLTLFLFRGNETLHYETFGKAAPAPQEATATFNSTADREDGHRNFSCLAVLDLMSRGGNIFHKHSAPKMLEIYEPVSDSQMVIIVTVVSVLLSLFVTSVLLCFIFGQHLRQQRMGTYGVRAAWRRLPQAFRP

Experiments:
Assay in all cases: log2 fold change, soluble protein after heating vs DMSO (PISA); higher = thermal stabilisation; K562 lysate, 10 uM; active = over 0.2 and 3.5 SD of the protein, either way, in both replicates (recomputed)
nilotinib = compound: Cc1cn(-c2cc(NC(=O)c3ccc(C)c(Nc4nccc(-c5cccnc5)n4)c3)cc(C(F)(F)F)c2)cn1 [nilotinib]
Summary of the method: (§1)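 Dounce homogenisation of K562 pellets in PBS pH 7.4 with 1 mM MgCl2 produced a crude extract, used at 1 mg/mL protein. Exposure to 10 μM compound lasted 30 min, and aliquots were then heated for 3 min across 48°C-58°C, pooled and brought to 0.5% NP-40 at 4°C. The supernatant after 21,000xg for 90 min was quantified by TMTpro 16plex LC-MS/MS with channel sums equalised. Duplicate values are given as log-two fold change in thermal stability relative to solvent controls.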

[1] = compound: Cc1nc(Nc2n[nH]c3c2CN(C(=O)N[C@H](CN(C)C)c2ccccc2)C3(C)C)c2sccc2n1
Summary of the method: as §1

dasatinib = compound: Cc1nc(Nc2ncc(C(=O)Nc3c(C)cccc3Cl)s2)cc(N2CCN(CCO)CC2)n1 [dasatinib]
Summary of the method: as §1

[2] = compound: Cc1ncc(-c2ccnc(Nc3ccc(S(C)(=O)=O)cc3)n2)n1C(C)C
Summary of the method: as §1

[3] = compound: Cn1cc(-c2ccc3c(c2)CCN3C(=O)Cc2cccc(C(F)(F)F)c2)c2c(N)ncnc21
Summary of the method: as §1

quisinostat = compound: Cn1cc(CNCC2CCN(c3ncc(C(=O)NO)cn3)CC2)c2ccccc21 [quisinostat]
Summary of the method: as §1

tipifarnib = compound: Cn1cncc1[C@@](N)(c1ccc(Cl)cc1)c1ccc2c(c1)c(-c1cccc(Cl)c1)cc(=O)n2C [tipifarnib]
Summary of the method: as §1

[4] = compound: NC(=O)Nc1cc(-c2cccc(F)c2)sc1C(=O)N[C@H]1CCCNC1
Summary of the method: as §1

[5] = compound: NC(=O)c1cnc(N[C@@H]2CCCC[C@@H]2N)nc1Nc1cccc(-n2nccn2)c1
Summary of the method: as §1

[6] = compound: NC1(c2ccc(-c3nc4ccn5c(=O)[nH]nc5c4cc3-c3ccccc3)cc2)CCC1
Summary of the method: as §1

vorinostat = compound: O=C(CCCCCCC(=O)Nc1ccccc1)NO [vorinostat]
Summary of the method: as §1

silmitasertib = compound: O=C(O)c1ccc2c(c1)nc(Nc1cccc(Cl)c1)c1ccncc12 [silmitasertib]
Summary of the method: as §1

[7] = compound: O=C1NC(=O)C(c2cnc3ccccn23)=C1c1cn2c3c(cc(F)cc13)CN(C(=O)N1CCCCC1)CC2
Summary of the method: as §1

entospletinib = compound: c1cn2cc(-c3ccc4cn[nH]c4c3)nc(Nc3ccc(N4CCOCC4)cc3)c2n1 [entospletinib]
Summary of the method: as §1

[8] = compound: NCC(=O)Nc1ccc(-n2nc(C(F)(F)F)cc2-c2ccc3c(ccc4ccccc43)c2)cc1
Summary of the method: as §1

Measured: log2 fold change

IGFBP4 (UniProt P22692)
inactive: nilotinib 0.005 | [1] -0.01 | dasatinib 0.085 | [2] -0.053 | [3] -0.022 | quisinostat -0.049 | tipifarnib 0.119 | [4] -0.021 | [5] 0.293 | [6] -0.026 | vorinostat 0.049 | silmitasertib -0.026 | [7] 0.023

IGHMBP2 (UniProt P38935)
inactive: nilotinib -0.081 | [1] 0.018 | dasatinib -0.067 | [2] -0.002 | [3] -0.039 | quisinostat -0.097 | tipifarnib -0.043 | [4] 0.147 | [5] -0.082 | [6] -0.06 | vorinostat 0.028 | silmitasertib 0.088 | [7] 0.168 | entospletinib -0.156

IMPACT (UniProt Q9P2X3)
active: [2] -0.687
inactive: nilotinib 0.087 | [1] -0.066 | dasatinib 0.013 | [3] 0.04 | quisinostat -0.103 | tipifarnib -0.13 | [4] 0.11 | [5] 0.071 | [6] 0.087 | [8] 0.019 | vorinostat -0.125 | silmitasertib -0.096 | [7] -0.082 | entospletinib -0.027

HSPH1 (UniProt Q92598)
inactive: nilotinib -0.007 | [1] 0.009 | dasatinib 0.015 | [2] 0.002 | [3] 0.025 | quisinostat 0.012 | tipifarnib -0.003 | [4] -0.006 | [5] 0.002 | [6] 0.013 | [8] -0.011 | vorinostat -0.122 | silmitasertib 0.005 | [7] -0.023 | entospletinib -0.01

IKBKG isoform 2 (UniProt Q9Y6K9)
inactive: nilotinib 0.005 | [1] 0.03 | dasatinib -0.018 | [2] 0.024 | [3] 0.038 | quisinostat -0.019 | tipifarnib -0.007 | [4] -0.007 | [5] 0.018 | [6] -0.029 | [8] 0.008 | vorinostat 0.036 | silmitasertib 0.035 | [7] 0.053 | entospletinib -0.001

ILRUN (UniProt Q9H6K1)
inactive: nilotinib -0.12 | [1] -0.038 | dasatinib -0.003 | [2] -0.073 | [3] 0.005 | quisinostat -0.047 | tipifarnib -0.012 | [4] 0.033 | [5] 0.041 | [6] -0.038 | [8] 0.002 | vorinostat -0.047 | silmitasertib 0.001 | [7] -0.01 | entospletinib -0.013

HSPE1 (UniProt P61604)
inactive: nilotinib 0.004 | [1] -0.037 | dasatinib 0.025 | [2] 0.016 | [3] 0.001 | quisinostat 0.031 | tipifarnib 0.019 | [4] -0.046 | [5] -0.01 | [6] -0.003 | [8] -0.076 | vorinostat 0.143 | silmitasertib 0.002 | [7] -0.004 | entospletinib -0.037

HSPBAP1 (UniProt Q96EW2)
inactive: nilotinib 0.1 | [1] 0.039 | dasatinib 0.011 | [2] 0.14 | [3] 0.213 | quisinostat -0.07 | tipifarnib 0.056 | [4] 0.024 | [5] -0.056 | [6] 0.032 | vorinostat -0.07 | silmitasertib 0.044 | [7] -0.014 | entospletinib -0.125

HSPB1 (UniProt P04792)
inactive: nilotinib -0.001 | [1] 0.003 | dasatinib -0.032 | [2] 0.012 | [3] 0.015 | quisinostat 0.025 | tipifarnib -0.006 | [4] 0.006 | [5] 0 | [6] 0.006 | [8] 0.019 | vorinostat -0.013 | silmitasertib -0.027 | [7] -0.001 | entospletinib 0.013

HSPA9 (UniProt P38646)
inactive: nilotinib -0.009 | [1] 0.006 | dasatinib 0.018 | [2] 0.007 | [3] -0.006 | quisinostat 0.059 | tipifarnib 0.019 | [4] -0.011 | [5] 0.014 | [6] 0.015 | [8] 0.015 | vorinostat 0.055 | silmitasertib -0.004 | [7] -0.009 | entospletinib -0.015

HTT (UniProt P42858)
inactive: nilotinib -0.106 | [1] 0.003 | dasatinib 0.001 | [2] 0.072 | [3] 0.072 | quisinostat -0.081 | tipifarnib -0.072 | [4] 0.041 | [6] 0.005 | [8] -0.029 | silmitasertib 0.04 | [7] 0 | entospletinib -0.042
active: vorinostat -0.331

IGHG1 (UniProt P01857)
inactive: nilotinib 0.335 | [1] 0.049 | dasatinib 0.081 | [2] 0.071 | [3] -0.057 | quisinostat 0.159 | tipifarnib -0.315 | [4] -0.178 | [6] 0.794 | [8] -0.13 | vorinostat 0.164 | silmitasertib -0.314 | [7] 0.565

IL27RA (UniProt Q6UWB1)
inactive: nilotinib -0.069 | [1] -0.08 | dasatinib 0.11 | [2] 0.084 | [3] -0.049 | quisinostat 0.019 | tipifarnib -0.067 | [4] -0.098 | [5] 0.059 | [6] -0.016 | vorinostat 0.141 | silmitasertib -0.268 | [7] -0.074 | entospletinib -0.016

IFT57 (UniProt Q9NWB7)
inactive: nilotinib -0.03 | [1] -0.006 | dasatinib -0.103 | [2] -0.12 | [3] -0.108 | quisinostat -0.028 | tipifarnib 0.114 | [4] 0.06 | [5] -0.05 | [6] -0.097 | vorinostat -0.17 | silmitasertib 0.094 | [7] 0.024 | entospletinib -0.076

INPP1 (UniProt P49441)
inactive: nilotinib 0.013 | [1] -0.043 | dasatinib -0.026 | [2] -0.043 | [3] -0.001 | quisinostat 0.017 | tipifarnib 0.097 | [4] 0.033 | [5] -0.003 | [6] 0.003 | [8] -0.017 | vorinostat -0.014 | silmitasertib 0.028 | [7] -0.021 | entospletinib 0.079

Taken from the entries so far (five entries):
HSPBAP1 (UniProt Q96EW2)
inactive: nilotinib 0.1 | [1] 0.039 | dasatinib 0.011 | [2] 0.14 | [3] 0.213 | quisinostat -0.07 | tipifarnib 0.056 | [4] 0.024 | [5] -0.056 | [6] 0.032 | vorinostat -0.07 | silmitasertib 0.044 | [7] -0.014 | entospletinib -0.125

HSPB1 (UniProt P04792)
inactive: nilotinib -0.001 | [1] 0.003 | dasatinib -0.032 | [2] 0.012 | [3] 0.015 | quisinostat 0.025 | tipifarnib -0.006 | [4] 0.006 | [5] 0 | [6] 0.006 | [8] 0.019 | vorinostat -0.013 | silmitasertib -0.027 | [7] -0.001 | entospletinib 0.013

HSPA9 (UniProt P38646)
inactive: nilotinib -0.009 | [1] 0.006 | dasatinib 0.018 | [2] 0.007 | [3] -0.006 | quisinostat 0.059 | tipifarnib 0.019 | [4] -0.011 | [5] 0.014 | [6] 0.015 | [8] 0.015 | vorinostat 0.055 | silmitasertib -0.004 | [7] -0.009 | entospletinib -0.015

HTT (UniProt P42858)
inactive: nilotinib -0.106 | [1] 0.003 | dasatinib 0.001 | [2] 0.072 | [3] 0.072 | quisinostat -0.081 | tipifarnib -0.072 | [4] 0.041 | [6] 0.005 | [8] -0.029 | silmitasertib 0.04 | [7] 0 | entospletinib -0.042
active: vorinostat -0.331

IGHG1 (UniProt P01857)
inactive: nilotinib 0.335 | [1] 0.049 | dasatinib 0.081 | [2] 0.071 | [3] -0.057 | quisinostat 0.159 | tipifarnib -0.315 | [4] -0.178 | [6] 0.794 | [8] -0.13 | vorinostat 0.164 | silmitasertib -0.314 | [7] 0.565

Next part:

IL18R1 (UniProt Q13478)
inactive: nilotinib 0.02 | [1] 0.136 | dasatinib 0.181 | [2] -0.108 | [3] 0.004 | quisinostat 0.067 | tipifarnib 0.118 | [4] 0.155 | [5] -0.055 | [6] 0.211 | [8] -0.246 | vorinostat 0.198 | silmitasertib -0.33 | [7] 0.075 | entospletinib -0.084

HSPA8 (UniProt E9PN89)
inactive: nilotinib 0.013 | [1] -0.008 | dasatinib -0.209 | [2] -0.055 | [3] -0.032 | quisinostat -0.415 | tipifarnib 0.006 | [4] 0 | [5] 0.084 | [6] -0.089 | vorinostat -0.01 | silmitasertib 0.016 | [7] -0.017 | entospletinib -0.024

HSPD1 (UniProt P10809)
inactive: nilotinib 0.019 | [1] -0.012 | dasatinib 0.001 | [2] 0.013 | [3] -0.008 | quisinostat 0 | tipifarnib -0.003 | [4] -0.02 | [5] -0.004 | [6] 0.024 | [8] 0.007 | vorinostat 0.129 | silmitasertib 0 | [7] 0.012 | entospletinib -0.005

ICAM2 (UniProt P13598)
inactive: nilotinib 0.081 | [1] -0.077 | dasatinib 0.013 | [2] 0.012 | [3] -0.035 | quisinostat 0.007 | tipifarnib -0.016 | [4] -0.018 | [5] -0.004 | [6] 0.018 | [8] -0.016 | vorinostat 0.148 | silmitasertib -0.029 | [7] -0.021 | entospletinib -0.018

IARS2 (UniProt Q9NSE4)
inactive: nilotinib 0.016 | [1] -0.007 | dasatinib -0.021 | [2] 0.026 | [3] 0 | quisinostat 0.022 | tipifarnib 0.006 | [4] 0.021 | [5] 0.02 | [6] -0.004 | [8] -0.002 | vorinostat 0.079 | silmitasertib -0.01 | [7] -0.021 | entospletinib 0.01
